At least one compound was matched to its structure with a doubt left.
Columns and labels:
[1] = test system: eye bank eyes; assay: Dye solution instilled by injection into the anterior chamber of eye bank eyes, viewed by naked eye / operating microscope; parameters: species or system human; conditions: Indigo Carmine 0.004, 0.04, 0.4 wt. %, other ophthalmic dyes for comparison
Excerpt: After an incision is made into the anterior chamber of the eye, a small amount of aqueous humor is expressed and the dye solution is instilled by injection into the anterior chamber. The dye solution is typically left in place for 30 seconds, during which time it stains the anterior capsule of the lens. Excess dye solution is then expelled, usually using a viscoelastic device or flushed out with a balanced salt solution.
Dye solutions containing 0.004 wt. %, 0.04 wt. %, and 0.4 wt. % of Indigo Carmine (prepared by serial dilutions of a 0.4 wt. % Indigo Carmine solution provided by Micro-Tech (Nanjing) Co.) were instilled by injection into the anterior chamber of seven eye bank eyes following the dye solution instillation procedure detailed above.
Special imaging techniques were not required.

[2] = cited from earlier work

| Compound | egress of dye from the eye into outflow vessels after injection into the anterior chamber [1] | acute and chronic toxicity [2] |
| --- | --- | --- |
| O=C1OC2(c3ccc(O)cc3Oc3cc(O)ccc32)c2ccccc21 [Fluorescein] | tends to diffuse through the tissues and is not very useful in specifically detecting the drainage pathways | – |
| O=C1C(=C2Nc3ccc(S(=O)(=O)[O-])cc3C2=O)Nc2ccc(S(=O)(=O)[O-])cc21.[Na+].[Na+] [Indigo Carmine, 5,5′-indigodisulfonic acid sodium salt] | – | very low rate of both acute and chronic toxicity |
